Here are results for three molecules from PMC12508156, “Non-canonical dihydrolipoyl transacetylase promotes chemotherapy resistance via mitochondrial tetrahydrofolate signaling” (Nature Communications, 2025).

Chains of the proteins cited; added tags and fusions are not shown. Residues count along the entry.
UniProt O00411, residues 42-1230: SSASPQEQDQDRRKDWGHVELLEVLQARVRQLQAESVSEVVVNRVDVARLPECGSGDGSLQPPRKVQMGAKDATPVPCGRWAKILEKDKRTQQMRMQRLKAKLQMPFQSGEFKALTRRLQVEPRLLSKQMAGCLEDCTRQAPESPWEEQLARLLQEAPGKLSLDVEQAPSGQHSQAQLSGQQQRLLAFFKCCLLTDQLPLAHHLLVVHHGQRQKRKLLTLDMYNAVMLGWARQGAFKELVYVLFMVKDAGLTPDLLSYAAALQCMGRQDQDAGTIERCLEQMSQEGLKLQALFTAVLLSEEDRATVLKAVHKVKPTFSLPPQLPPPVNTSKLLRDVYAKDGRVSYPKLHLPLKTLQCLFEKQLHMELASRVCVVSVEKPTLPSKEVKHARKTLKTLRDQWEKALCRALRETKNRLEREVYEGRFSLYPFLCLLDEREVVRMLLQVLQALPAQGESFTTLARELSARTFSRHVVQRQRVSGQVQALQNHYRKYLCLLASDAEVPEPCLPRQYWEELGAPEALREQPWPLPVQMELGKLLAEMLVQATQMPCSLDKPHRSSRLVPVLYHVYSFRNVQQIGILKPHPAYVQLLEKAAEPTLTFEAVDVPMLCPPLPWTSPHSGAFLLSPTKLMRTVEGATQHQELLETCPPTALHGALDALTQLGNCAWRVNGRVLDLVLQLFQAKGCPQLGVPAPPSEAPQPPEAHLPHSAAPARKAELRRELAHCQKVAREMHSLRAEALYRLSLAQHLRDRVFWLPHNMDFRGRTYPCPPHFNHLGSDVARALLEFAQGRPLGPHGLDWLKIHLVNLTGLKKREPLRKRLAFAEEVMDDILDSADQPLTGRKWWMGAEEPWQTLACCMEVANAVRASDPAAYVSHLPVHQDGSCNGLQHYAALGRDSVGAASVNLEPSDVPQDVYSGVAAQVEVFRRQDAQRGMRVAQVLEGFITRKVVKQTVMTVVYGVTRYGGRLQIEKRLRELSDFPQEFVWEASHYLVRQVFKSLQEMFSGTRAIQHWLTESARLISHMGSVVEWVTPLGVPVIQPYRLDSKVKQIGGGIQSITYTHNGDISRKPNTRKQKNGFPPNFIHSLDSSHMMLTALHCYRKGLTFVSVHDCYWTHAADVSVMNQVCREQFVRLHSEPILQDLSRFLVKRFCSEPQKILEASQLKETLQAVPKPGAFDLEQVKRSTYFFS

No constants are given. Whether binding was seen depends on the method and setting. In cells and extracts the contact can be indirect. Here binding means that the protein was enriched with, or labelled near, the bait; the list need not be complete.

For the assay, the target named is T1, dihydrolipoyl transacetylase (DLAT) (human (endogenous in A549^cisR)) (UniProt P10515).
T1 sequence: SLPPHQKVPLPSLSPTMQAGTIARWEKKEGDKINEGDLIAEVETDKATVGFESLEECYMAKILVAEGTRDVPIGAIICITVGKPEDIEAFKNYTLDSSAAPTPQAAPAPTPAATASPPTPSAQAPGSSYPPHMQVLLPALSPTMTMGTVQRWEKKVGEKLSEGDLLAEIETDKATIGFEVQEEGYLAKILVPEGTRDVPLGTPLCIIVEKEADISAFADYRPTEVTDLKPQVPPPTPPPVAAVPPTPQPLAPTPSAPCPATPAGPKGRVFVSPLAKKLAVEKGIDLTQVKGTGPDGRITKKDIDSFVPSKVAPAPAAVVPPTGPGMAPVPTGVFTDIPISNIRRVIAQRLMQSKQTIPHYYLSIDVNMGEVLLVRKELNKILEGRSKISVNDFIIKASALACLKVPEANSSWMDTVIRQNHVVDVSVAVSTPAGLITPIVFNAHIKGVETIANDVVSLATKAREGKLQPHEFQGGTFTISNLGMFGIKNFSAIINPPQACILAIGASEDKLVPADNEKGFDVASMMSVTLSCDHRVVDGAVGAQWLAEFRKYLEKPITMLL
The assay is described as follows: affinity purification with mass spectrometry; DLAT co-immunoprecipitation with anti-DLAT antibody and Protein G Sepharose from A549^cisR cells with or without DLAT knockdown; 1% NP-40 lysis buffer, 50 mM Tris-HCl pH 7.4, 150 mM NaCl, 4 °C; LC-MS/MS.

“RNA polymerase mitochondrial (POLRMT) (from UniProt O00411 42-1230) (enzyme)”: the binding entry is reported as “binds”.

B1: methylenetetrahydrofolate dehydrogenase 2 (MTHFD2) (enzyme, UniProt P13995 36-350)
chain: EAVVISGRKLAQQIKQEVRQEVEEWVASGNKRPHLSVILVGENPASHSYVLNKTRAAAVVGINSETIMKPASISEEELLNLINKLNNDDNVDGLLVQLPLPEHIDERRICNAVSPDKDVDGFHVINVGRMCLDQYSMLPATPWGVWEIIKRTGIPTLGKNVVVAGRSKNVGMPIAMLLHTDGAHERPGGDATVTISHRYTPKEQLKKHTILADIVISAAGIPNLITADMIKEGAAVIDVGINRVHDPVTAKPKLVGDVDFEGVRQKAGYITPVPGGVGPMTVAMLMKNTIIAAKKVLRLEEREVLKSKELGVATN
Consider B1, for which the binding entry is “binds”.

B2: peroxiredoxin 3 (PRDX3) (enzyme, UniProt P30048 62-256)
chain: APAVTQHAPYFKGTAVVNGEFKDLSLDDFKGKYLVLFFYPLDFTFVCPTEIVAFSDKANEFHDVNCEVVAVSVDSHFSHLAWINTPRKNGGLGHMNIALLSDLTKQISRDYGVLLEGSGLALRGLFIIDPNGVIKHLSVNDLPVGRSVEETLRLVKAFQYVETHGEVCPANWTPDSPTIKPSPAASKEYFQKVNQ
Turning to B2, the binding result is recorded as “binds”.
